# Experimental data: PubChem BioAssay AID1259308 (NCATS, 2017)
# Aim: 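Genes whose loss raises luciferase production in HEK293 cells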 (primary screen)
# Cell system: human HEK293 embryonic kidney cells stably expressing firefly luciferase (HEK-CMV-Luc2-Hygro)
# Knock-down reagent: single siRNA against human genes, 0.8 pmol siRNA per well
# Time to read-out: 72 h
# Measurement: 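Luciferase light (ONE-Glo) measured on one replicate plate set and viability (CellTiter-Glo) on the other, scaled to a negative control siRNA, with robust z-scores and luciferase per cell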
# Scale: total luciferase, z-score and total luciferase, % of control: higher = more reporter protein produced; luciferase per cell, z-score: higher = more reporter output per viable cell; viable cells, % of control: higher = more viable cells
# Call rule: 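An siRNA counts as active if its total luciferase robust z-score exceeds 3; genes with two or more such siRNAs out of three were retested with fresh siRNAs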
# Meaning of the calls: active = raised luciferase; inactive = no rise
# Here is an unselected part of about 59,000 deposited reagents. About 1,510 of all reagents (2.6%) count as active. 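Calls use total luciferase alone and ignore viability, so some active siRNAs may act by altering cell number.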 Reagents against one gene are numbered here.
Gene,reagent no.,"total luciferase, z-score","total luciferase, % of control","luciferase per cell, z-score","viable cells, % of control",call
THY1,1,0.514,92.1,0.589,88.1,inactive
THY1,2,-0.436,73.2,-0.664,97.4,inactive
THY1,3,0.449,90.8,0.388,91.6,inactive
ZDHHC21,1,-0.131,79.3,0.202,84,inactive
ZDHHC21,2,0.618,94.2,0.463,93.2,inactive
ZDHHC21,3,3.31,148,2.34,89.2,active
ENPP3,1,-0.389,74.1,0.0654,81.4,inactive
ENPP3,2,0.872,99.2,0.433,98.9,inactive
ENPP3,3,0.5,91.8,0.985,79.2,inactive
FOXL1,1,0.901,99.8,0.15,107,inactive
FOXL1,2,-0.31,75.7,0.525,73.7,inactive
FOXL1,3,2.95,141,1.58,104,inactive
PKM,1,0.14,84.7,0.714,78.4,inactive
PKM,2,-1.14,59.2,-1.22,91.2,inactive
PKM,3,-1.18,58.4,-0.291,70.4,inactive

Only “viable cells, % of control” (4 entries from above):
ZDHHC21 #2 = 93.2
ZDHHC21 #3 = 89.2
ENPP3 #1 = 81.4
ENPP3 #2 = 98.9

More reagents follow.
Gene,reagent no.,"total luciferase, z-score","total luciferase, % of control","luciferase per cell, z-score","viable cells, % of control",call
IFT43,1,0.809,98,0.244,103,inactive
IFT43,2,-0.254,76.8,-0.592,100,inactive
IFT43,3,-0.189,78.1,-0.525,100,inactive
NRG1,1,-0.501,71.9,-0.343,88,inactive
NRG1,2,0.234,86.5,0.901,76.3,inactive
NRG1,3,5.46,191,3.4,87,active
TIMP3,1,-2.28,36.6,-2.77,84.8,inactive
TIMP3,2,-0.187,78.2,0.281,81.1,inactive
TIMP3,3,-1.06,60.8,-0.978,87.8,inactive
MTUS1,1,0.424,90.3,0.211,95.5,inactive
MTUS1,2,0.54,92.6,0.0255,103,inactive
MTUS1,3,-0.524,71.5,-0.875,101,inactive
PKD1L2,1,1.09,104,0.627,98.2,inactive
PKD1L2,2,-0.218,77.6,-1.05,114,inactive
PKD1L2,3,-1.04,61.2,-1.13,92.3,inactive
TCL6,1,0.0894,83.7,0.874,74.3,inactive
TCL6,2,0.469,91.2,0.43,91,inactive
TCL6,3,0.75,96.8,0.806,87.5,inactive
RNF146,1,1.44,111,0.529,107,inactive
RNF146,2,0.661,95,0.403,95.5,inactive
RNF146,3,0.918,100,0.9,88.3,inactive
DPP9,1,0.923,100,0.339,102,inactive
DPP9,2,-0.812,65.7,0.0336,72.8,inactive
DPP9,3,-0.474,72.4,-0.0683,82.4,inactive
